Measured values reported in US12084522B2, “Peptides, combination of peptides, and cell based medicaments for use in immunotherapy against urinary bladder cancer and other cancers” (Immatics Biotechnologies GmbH, priority 2016, dated 2024).

Tested on: primary urinary bladder cancer tissue samples (HLA-A*02-positive) versus panel of normal tissues
Assay: Identification and relative quantitation of HLA-presented tumor associated peptides by LC-MS (presentation profiles/scores)
Set-up: species or system human; key to Peptide Presentation: very highly over-presented on tumors compared to a panel of normal tissues (+++); highly over-presented on tumors compared to a panel of normal tissues (++); over-presented on tumors compared to a panel of normal tissues (+)
Conditions: presentation score: over-presentation on urinary bladder cancer tumors compared to a panel of normal tissues, label-free LC-MS

Substance: 1 (ILLQASVQV; listed as Homo sapiens) [compound 1]
- Peptide Presentation: +++

Substance: 2 (GLLKAYSIRTA; listed as Homo sapiens) [compound 2]
- Peptide Presentation: +++

Substance: 4 (SLDVVNLLV; listed as Homo sapiens) [compound 4]
- Peptide Presentation: +++

Substance: 7 (QMFEGQILDV; listed as Homo sapiens) [compound 7]
- Peptide Presentation: +++

Substance: 8 (ALSFSSSAGPGLLKA; listed as Homo sapiens) [compound 8]
- Peptide Presentation: +++

Substance: 9 (SLVDARFQL; listed as Homo sapiens) [compound 9]
- Peptide Presentation: +++

Substance: 10 (GLWHGMFANV; listed as Homo sapiens) [compound 10]
- Peptide Presentation: +++

Substance: 11 (AMAELRVVV; listed as Homo sapiens) [compound 11]
- Peptide Presentation: ++

Substance: 12 (GVALTVTGV; listed as Homo sapiens) [compound 12]
- Peptide Presentation: +++

Substance: 13 (FLEEKEQAAL; listed as Homo sapiens) [compound 13]
- Peptide Presentation: +++

Substance: 14 (GLAGPVRGV; listed as Homo sapiens) [compound 14]
- Peptide Presentation: +++

Substance: 15 (YLAPENGYLMEA; listed as Homo sapiens) [compound 15]
- Peptide Presentation: +++

Substance: 16 (ILGPQGNTI; listed as Homo sapiens) [compound 16]
- Peptide Presentation: +++

Substance: 17 (RLSQLEGVNV; listed as Homo sapiens) [compound 17]
- Peptide Presentation: +

Substance: 18 (SIAAYNPVV; listed as Homo sapiens) [compound 18]
- Peptide Presentation: +++

Substance: 19 (SLATTLTKI; listed as Homo sapiens) [compound 19]
- Peptide Presentation: +++

Substance: 20 (YLPDSLTQL; listed as Homo sapiens) [compound 20]
- Peptide Presentation: +++

Substance: 23 (YTLSKTEFL; listed as Homo sapiens) [compound 23]
- Peptide Presentation: +++

Substance: 24 (SLLGGITVV; listed as Homo sapiens) [compound 24]
- Peptide Presentation: ++

Substance: 28 (GLIDSLMAYV; listed as Homo sapiens) [compound 28]
- Peptide Presentation: +++

Substance: 30 (ILDISRSEV; listed as Homo sapiens) [compound 30]
- Peptide Presentation: +++

Substance: 31 (SLFDGIATGL; listed as Homo sapiens) [compound 31]
- Peptide Presentation: +++

Substance: 33 (VLFGEITRL; listed as Homo sapiens) [compound 33]
- Peptide Presentation: ++

Substance: 34 (ALLDEQQVNV; listed as Homo sapiens) [compound 34]
- Peptide Presentation: ++

Substance: 35 (KLPEPPPLA; listed as Homo sapiens) [compound 35]
- Peptide Presentation: +++

Substance: 36 (ALWDEFNQL; listed as Homo sapiens) [compound 36]
- Peptide Presentation: +++

Substance: 37 (ILSAILVHL; listed as Homo sapiens) [compound 37]
- Peptide Presentation: +++

Substance: 38 (TLTSIIVAV; listed as Homo sapiens) [compound 38]
- Peptide Presentation: +++

Substance: 40 (VIADRVVTV; listed as Homo sapiens) [compound 40]
- Peptide Presentation: +++

Substance: 41 (FLDDGNQMLL; listed as Homo sapiens) [compound 41]
- Peptide Presentation: +++

Substance: 42 (FLIDASQRV; listed as Homo sapiens) [compound 42]
- Peptide Presentation: +++

Substance: 43 (FLIESKLLSL; listed as Homo sapiens) [compound 43]
- Peptide Presentation: +++

Substance: 44 (GLAQDPKSLQL; listed as Homo sapiens) [compound 44]
- Peptide Presentation: +++

Substance: 45 (IIDSSPTAL; listed as Homo sapiens) [compound 45]
- Peptide Presentation: +++

Substance: 46 (SLFIGAEIVAV; listed as Homo sapiens) [compound 46]
- Peptide Presentation: +++

Substance: 47 (VLMDDTDPL; listed as Homo sapiens) [compound 47]
- Peptide Presentation: +++

Substance: 48 (VLMDDTDPLV; listed as Homo sapiens) [compound 48]
- Peptide Presentation: +++

Substance: 49 (SLIGGTNFV; listed as Homo sapiens) [compound 49]
- Peptide Presentation: ++

Substance: 50 (VLANRVAVV; listed as Homo sapiens) [compound 50]
- Peptide Presentation: +

Substance: 51 (ALLDKAQINL; listed as Homo sapiens) [compound 51]
- Peptide Presentation: ++

Substance: 53 (ILVQVIPVV; listed as Homo sapiens) [compound 53]
- Peptide Presentation: +++

Substance: 54 (ALNDEINFL; listed as Homo sapiens) [compound 54]
- Peptide Presentation: +++

Substance: 55 (KLLETKWTL; listed as Homo sapiens) [compound 55]
- Peptide Presentation: +

Substance: 56 (ILLRDLPTL; listed as Homo sapiens) [compound 56]
- Peptide Presentation: ++

Substance: 57 (GLAHFVNEI; listed as Homo sapiens) [compound 57]
- Peptide Presentation: ++

Substance: 58 (GLDSSVNVQGSVL; listed as Homo sapiens) [compound 58]
- Peptide Presentation: +++

Substance: 59 (WLSTSIPEA; listed as Homo sapiens) [compound 59]
- Peptide Presentation: ++

Substance: 60 (SLSDVRVIV; listed as Homo sapiens) [compound 60]
- Peptide Presentation: ++

Substance: 62 (GQLDFSEFL; listed as Homo sapiens) [compound 62]
- Peptide Presentation: +

Substance: 63 (LLAGLLVGV; listed as Homo sapiens) [compound 63]
- Peptide Presentation: +++

Substance: 64 (GLLSQGSPL; listed as Homo sapiens) [compound 64]
- Peptide Presentation: +++

Substance: 65 (IITDLLRSV; listed as Homo sapiens) [compound 65]
- Peptide Presentation: +++

Substance: 66 (SLWEENQAL; listed as Homo sapiens) [compound 66]
- Peptide Presentation: ++

Substance: 67 (FLTPPLLSV; listed as Homo sapiens) [compound 67]
- Peptide Presentation: +++

Substance: 68 (TMIVSLAAV; listed as Homo sapiens) [compound 68]
- Peptide Presentation: ++

Substance: 69 (QIWDKILSV; listed as Homo sapiens) [compound 69]
- Peptide Presentation: +

Substance: 70 (KLAEISLGV; listed as Homo sapiens) [compound 70]
- Peptide Presentation: +++

Substance: 73 (VLKVFLENV; listed as Homo sapiens) [compound 73]
- Peptide Presentation: ++

Substance: 74 (LLQEGEVYSA; listed as Homo sapiens) [compound 74]
- Peptide Presentation: +

Substance: 77 (KVFGGFQVV; listed as Homo sapiens) [compound 77]
- Peptide Presentation: ++

Substance: 80 (ILLDTPLFLL; listed as Homo sapiens) [compound 80]
- Peptide Presentation: +++

Substance: 81 (SLDKGTLYI; listed as Homo sapiens) [compound 81]
- Peptide Presentation: ++

Substance: 82 (NLHNSYYSV; listed as Homo sapiens) [compound 82]
- Peptide Presentation: +

Substance: 83 (VILDKYYFL; listed as Homo sapiens) [compound 83]
- Peptide Presentation: +

Substance: 84 (ALDPASISV; listed as Homo sapiens) [compound 84]
- Peptide Presentation: +

Substance: 87 (RLLELLQEA; listed as Homo sapiens) [compound 87]
- Peptide Presentation: ++

Substance: 89 (YLFPETEFI; listed as Homo sapiens) [compound 89]
- Peptide Presentation: +

Substance: 91 (NLDAATYQV; listed as Homo sapiens) [compound 91]
- Peptide Presentation: +

Substance: 92 (ALLDEQQVNVLL; listed as Homo sapiens) [compound 92]
- Peptide Presentation: +

Substance: 94 (ALADGVPVAL; listed as Homo sapiens) [compound 94]
- Peptide Presentation: ++

Substance: 96 (KLTNGIWVL; listed as Homo sapiens) [compound 96]
- Peptide Presentation: +

Substance: 97 (TVGPGLLGV; listed as Homo sapiens) [compound 97]
- Peptide Presentation: ++

Substance: 98 (YLIGLDPENLAL; listed as Homo sapiens) [compound 98]
- Peptide Presentation: ++

Substance: 99 (ALIGDDVGL; listed as Homo sapiens) [compound 99]
- Peptide Presentation: ++

Substance: 100 (SLQSFIHGV; listed as Homo sapiens) [compound 100]
- Peptide Presentation: +

Substance: 102 (GLYEGLDWL; listed as Homo sapiens) [compound 102]
- Peptide Presentation: +++

Substance: 103 (GLYSGEVLV; listed as Homo sapiens) [compound 103]
- Peptide Presentation: +

Substance: 104 (NAVVELVTV; listed as Homo sapiens) [compound 104]
- Peptide Presentation: ++

Substance: 106 (ILLDTPLFL; listed as Homo sapiens) [compound 106]
- Peptide Presentation: +

Substance: 107 (LTLAKLEKV; listed as Homo sapiens) [compound 107]
- Peptide Presentation: +++

Substance: 110 (VLFNIDGQGNHV; listed as Homo sapiens) [compound 110]
- Peptide Presentation: +++

Substance: 111 (LLDVTPKAV; listed as Homo sapiens) [compound 111]
- Peptide Presentation: +++

Substance: 112 (YLDPSLNSL; listed as Homo sapiens) [compound 112]
- Peptide Presentation: +++

Substance: 113 (FVFEPPPGV; listed as Homo sapiens) [compound 113]
- Peptide Presentation: +++

Substance: 114 (IITKDLFQV; listed as Homo sapiens) [compound 114]
- Peptide Presentation: +++

Substance: 115 (SLLDFERSL; listed as Homo sapiens) [compound 115]
- Peptide Presentation: +++

Substance: 116 (QLAWFDTDL; listed as Homo sapiens) [compound 116]
- Peptide Presentation: +

Substance: 117 (YMLDIFHEVL; listed as Homo sapiens) [compound 117]
- Peptide Presentation: +++

Substance: 118 (RLLDFPTLLV; listed as Homo sapiens) [compound 118]
- Peptide Presentation: +++
